Drawing on publication doi:10.1101/2020.04.06.007948, this text covers binding for one substance.

These are yes or no findings as the source states them, for the method shown. Some results given as binding are weak or reduced against the parent protein; the word gives no strength. Where a sequence is shown, tags or fusion partners need not be part of it.

In this assay the target is T1, α-DG of wild-type DG expressed from adenovirus (Ad-DG) in POMK/DG KO HAP1 cells (UniProt Q28685).
T1 sequence (chain, core M3 not phosphorylated (POMK KO cells); short, non-extended matriglycan): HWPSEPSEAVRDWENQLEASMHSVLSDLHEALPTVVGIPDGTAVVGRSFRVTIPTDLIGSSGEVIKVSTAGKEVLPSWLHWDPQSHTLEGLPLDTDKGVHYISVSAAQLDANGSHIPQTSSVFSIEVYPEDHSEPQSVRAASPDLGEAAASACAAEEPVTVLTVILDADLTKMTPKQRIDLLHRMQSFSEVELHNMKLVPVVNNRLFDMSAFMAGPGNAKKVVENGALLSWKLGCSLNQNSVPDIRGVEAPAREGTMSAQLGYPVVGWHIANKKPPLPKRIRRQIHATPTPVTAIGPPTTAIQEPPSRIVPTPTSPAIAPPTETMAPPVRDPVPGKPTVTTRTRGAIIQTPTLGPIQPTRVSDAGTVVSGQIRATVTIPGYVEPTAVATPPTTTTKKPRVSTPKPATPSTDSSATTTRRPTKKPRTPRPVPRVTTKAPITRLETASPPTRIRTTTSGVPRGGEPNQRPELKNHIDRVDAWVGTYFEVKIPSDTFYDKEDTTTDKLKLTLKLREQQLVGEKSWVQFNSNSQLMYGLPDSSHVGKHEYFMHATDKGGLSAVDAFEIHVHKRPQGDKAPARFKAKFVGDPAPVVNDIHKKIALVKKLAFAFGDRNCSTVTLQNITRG
The assay can be described thus: far-Western, overlay or dot blot.

Take “mouse Engelbreth-Holm-Swarm (EHS) laminin (from UniProt P19137 25-3083; P02469 22-1786; P02468 34-1607) (complex)”: the binding entry was “binds”.
